{
  "source": "paper PMC12040169",
  "about": "(PLOS Biology, 2025)",
  "note": "The other results are listed elsewhere or left out.",
  "data": [
    {"test_system": "T1, CTL2-GFP (C. trachomatis L2/434/Bu, GFP-expressing)", "T1 construct": "L2/434/Bu, GFP-expressing", "design": "species or system HeLa; Intracellular C. trachomatis growth in HeLa cells, bulk GFP fluorescence relative to DMSO", "conditions": "bulk GFP, single well; 28.5 h, 10 µM; inhibitor", "units": {"% of control remaining": "%"}, "values": [
      {"smiles": "Cc1cc(C(=O)N2CCN(Cc3ccco3)C[C@@H]2C(C)C)c(C)[nH]1", "note": "[CBK284254]", "% of control remaining": 172.351},
      {"smiles": "Cc1nc(CC(=O)Nc2ccc(N3CCOCC3)cc2)cs1", "note": "[CBK304339]", "% of control remaining": 140.765},
      {"smiles": "O=C(NCCCNC(=O)c1ccc(Cl)cc1Cl)c1ccncc1", "note": "[CBK269372]", "% of control remaining": 80.1102},
      {"smiles": "CS(=O)(=O)N1CC2(CCN(Cc3cccc(C(F)(F)F)c3)CC2)c2ccccc21", "note": "[CBK126670]", "% of control remaining": 120.089},
      {"smiles": "O=C1CC(c2ccccc2)CC(=O)C1=CNCc1ccccn1", "note": "(stereo not drawn) [CBK262521]", "% of control remaining": 109.483},
      {"smiles": "CNC(=O)c1nc(NC)oc1C", "note": "[CBK059214]", "% of control remaining": 103.917},
      {"smiles": "O=C(O)[C@@H]1CCCN1c1nc(O)cc(C(F)(F)F)n1", "note": "[CBK002865]", "% of control remaining": 102.079},
      {"smiles": "COc1ccc(Cl)cc1S(=O)(=O)N1CCC(C(=O)NCCCO)CC1", "note": "[CBK269835]", "% of control remaining": 104.073},
      {"smiles": "COC(=O)CCn1c(-c2ccncc2)cc2cccnc21", "note": "[CBK282592]", "% of control remaining": 120.394},
      {"smiles": "CN(Cc1ccc(-c2ccc(S(C)(=O)=O)cc2)nc1)C1CCN(C(=O)c2ccc(Cl)c(Cl)c2)CC1", "note": "[CBK164101T]", "% of control remaining": 109.457},
      {"smiles": "CC1(C)CC(=O)c2sc(NC(=O)c3ccc4ncccc4c3)nc2C1", "note": "[CBK144105]", "% of control remaining": 107.945},
      {"smiles": "O=C(Nc1ccccc1F)C1CCCN1c1nc(O)cc(C(F)(F)F)n1", "note": "(stereo not drawn) [CBK004307]", "% of control remaining": 84.9716},
      {"smiles": "CCOc1ccc(-c2ccnc(NCCNC(C)=O)n2)cc1C(=O)O", "note": "[CBK306898]", "% of control remaining": 154.649},
      {"smiles": "O=C(c1ccco1)N1CCN(c2cncc(-c3cccc4cccnc34)n2)CC1", "note": "[CBK037339]", "% of control remaining": 120.229},
      {"smiles": "CCn1c(C)cc2cc(NC(=O)c3cnc(C)nc3C)ccc21", "note": "[CBK283260]", "% of control remaining": 76.757},
      {"smiles": "CN(CC(=O)Nc1nnc[nH]1)S(=O)(=O)c1ccc(Br)cc1", "note": "[CBK268618]", "% of control remaining": 141.858},
      {"smiles": "CSc1ccc(-c2nc(C)c(C(C)=O)n2O)cc1", "note": "[CBK288356]", "% of control remaining": 132.075},
      {"smiles": "COc1ccc2nc(Nc3nnc(-c4ccco4)o3)sc2c1", "note": "[CBK287486]", "% of control remaining": 119.083},
      {"smiles": "O=C(Cn1c(=O)n(Cc2cccs2)c2ncccc21)NC1CC1", "note": "[CBK283898]", "% of control remaining": 133.172},
      {"smiles": "C=CCn1c(-c2sc(NC(=O)c3ccc(Cl)cc3F)nc2C)n[nH]c1=S", "note": "[CBK295361]", "% of control remaining": 143.553},
      {"smiles": "O=C(Cn1cccc2cc(C3CCCNC3)nc1-2)NC1CCCC1", "note": "(stereo not drawn) [CBK285015]", "% of control remaining": 107.678},
      {"smiles": "CC(C)(C)c1cc(N2C(=O)C(O)=C(C(=O)c3ccc(Cl)cc3)C2c2cccc([N+](=O)[O-])c2)no1", "note": "(stereo not drawn) [CBK263470]", "% of control remaining": 136.111},
      {"smiles": "COc1ccccc1C(=O)N[C@H]1C[C@@H](c2nc(-c3cnccn3)no2)N(C)C1", "note": "[CBK288850]", "% of control remaining": 109.794},
      {"smiles": "O=C(O)c1ccc(COc2cccc(/C=N\\O)c2)cc1", "note": "[CBK288501]", "% of control remaining": 107.663},
      {"smiles": "C=CCNc1nccnc1-c1ccccc1OC", "note": "[CBK036831]", "% of control remaining": 122.554},
      {"smiles": "COc1cc(CNc2cc(-c3ccc(NC(C)=O)cc3)ncn2)cc(OC)c1OC", "note": "[CBK091185]", "% of control remaining": 183.593},
      {"smiles": "CC12CN3CC(C)(CN(C1)C3c1ccc([N+](=O)[O-])cc1)C2", "note": "(stereo not drawn) [CBK262665]", "% of control remaining": 92.6383},
      {"smiles": "O=C(O)CCC(=O)N1CCCc2ccccc21", "note": "[CBK051167]", "% of control remaining": 143.531},
      {"smiles": "Cc1ccc(-c2nnc(COC(=O)c3cc(O)nc4ccccc34)o2)cc1", "note": "[CBK269741]", "% of control remaining": 112.712},
      {"smiles": "CS(=O)(=O)c1cccc(C(=O)n2c(=O)n(CC3CCCCC3)c3ccccc32)c1", "note": "[CBK106520]", "% of control remaining": 104.75},
      {"smiles": "CCOC(=O)c1c(NC(=O)CCN2CCCCC2)sc2c1CCCCC2", "note": "[CBK265319G]", "% of control remaining": 121.159},
      {"smiles": "Cc1nc(C)n(CCNC(=O)Cc2coc3cc(C)c(C)cc23)n1", "note": "[CBK282613]", "% of control remaining": 107.433},
      {"smiles": "CCC(=O)Nc1ccc(-c2csc(N3CCSCC3)n2)cc1", "note": "[CBK306469]", "% of control remaining": 108.065},
      {"smiles": "S=C(NCc1ccccc1)Nc1ccccc1", "note": "[CBK091617]", "% of control remaining": 95.9708},
      {"smiles": "CCOc1ccc(C(=O)Nc2nc(-c3ccc(F)cc3)cs2)cc1", "note": "[CBK072020]", "% of control remaining": 113.979},
      {"smiles": "O=C1C2C3C=CC(C3)C2C(=O)N1CCN1CCNCC1", "note": "(stereo not drawn) [CBK278185C]", "% of control remaining": 117.914},
      {"smiles": "Nc1cc2cccnc2nc1-c1cccc2cccnc12", "note": "[CBK067609]", "% of control remaining": 107.018},
      {"smiles": "COc1ccc(CCNC(=O)c2cc(-c3ccc(C)o3)nc3ccccc23)cc1OC", "note": "[CBK265486]", "% of control remaining": 92.5901},
      {"smiles": "COc1cc(CNC(=O)N2CCN(CCc3ccccc3)CC2)cc(OC)c1OC", "note": "[CBK158910]", "% of control remaining": 108.739},
      {"smiles": "CC(=O)c1ccccc1OCCOCCN1CCCC(C)C1", "note": "(stereo not drawn) [CBK269625C]", "% of control remaining": 100.58},
      {"smiles": "COc1ncc(-c2cncc(Nc3cccc(C#N)c3)n2)c(OC)n1", "note": "[CBK066022]", "% of control remaining": 180.649},
      {"smiles": "CN(C)C(=O)c1ccc(-c2ncc(OCCN3CCOCC3)nc2N)cc1", "note": "[CBK145183]", "% of control remaining": 100},
      {"smiles": "CNC(=S)N/C(=N/c1ccccc1)c1ccccc1", "note": "[CBK261037]", "% of control remaining": 99.3486},
      {"smiles": "O=C(c1cc(F)c(F)cc1F)N1CCC2(CCN(Cc3cccc(C(F)(F)F)c3)C2)C1", "note": "(stereo not drawn) [CBK132130]", "% of control remaining": 119.857},
      {"smiles": "Cc1cccc(-c2ncc(NC(=O)CCc3cccnc3)nc2-c2ccc(N)cc2)c1", "note": "[CBK036684]", "% of control remaining": 136.829},
      {"smiles": "COc1ccc(NC(=O)CSc2nc(C)c(Cc3ccc(O)cc3)[nH]2)cc1", "note": "[CBK291171]", "% of control remaining": 134.071},
      {"smiles": "CC(CNC(=O)C(C)Oc1ccccc1)CN(C)C", "note": "(stereo not drawn) [CBK268658]", "% of control remaining": 128.01},
      {"smiles": "O=C(NCCCNc1c(Cl)cccc1[N+](=O)[O-])c1ccc(F)cc1", "note": "[CBK264943]", "% of control remaining": 107.858},
      {"smiles": "O=C(O)/C=C/c1cccc(-c2cnc(N3CCOCC3)c3nccn23)c1", "note": "[CBK091263]", "% of control remaining": 100.659},
      {"smiles": "O=C(Cn1nnc(-c2ccccc2)n1)Nc1cccc([N+](=O)[O-])c1", "note": "[CBK263057]", "% of control remaining": 100},
      {"smiles": "CC(C)COC(=O)N1CCC(C(=O)NC(c2ccc(Cl)cc2)c2cnccn2)CC1", "note": "(stereo not drawn) [CBK059668]", "% of control remaining": 142.32}
    ]}
  ]
}
